No constants are given. Whether binding was seen depends on the method and setting. Binding seen in cells or lysates may run through a third protein. These calls come from enrichment with a bait or labelling near it, and not all partners need be listed. For part of these data: A no says only that the protein was not detected with the bait. Where a sequence is shown, tags or fusion partners need not be part of it.
Key:
Test in all cases: affinity purification with mass spectrometry; whole-body L3 larvae with Flag-tagged knock-in alleles (AGBE^FCF, IRP1A^3F, IRP1B^3F) on regular food (IRP1A^3F also after one or two generations on BPS food); 0.2% formaldehyde cross-linking in vivo; anti-Flag M2 affinity gel, 2 h, 4 °C; proteins found in untagged controls removed
[1] = molecular target: T1, Drosophila IRP1A in larvae (endogenously Flag-tagged IRP1A^3F as bait; endogenous IRP1A as prey) (Drosophila (endogenous in larvae)) (UniProt Q9VCV4)
T1 sequence: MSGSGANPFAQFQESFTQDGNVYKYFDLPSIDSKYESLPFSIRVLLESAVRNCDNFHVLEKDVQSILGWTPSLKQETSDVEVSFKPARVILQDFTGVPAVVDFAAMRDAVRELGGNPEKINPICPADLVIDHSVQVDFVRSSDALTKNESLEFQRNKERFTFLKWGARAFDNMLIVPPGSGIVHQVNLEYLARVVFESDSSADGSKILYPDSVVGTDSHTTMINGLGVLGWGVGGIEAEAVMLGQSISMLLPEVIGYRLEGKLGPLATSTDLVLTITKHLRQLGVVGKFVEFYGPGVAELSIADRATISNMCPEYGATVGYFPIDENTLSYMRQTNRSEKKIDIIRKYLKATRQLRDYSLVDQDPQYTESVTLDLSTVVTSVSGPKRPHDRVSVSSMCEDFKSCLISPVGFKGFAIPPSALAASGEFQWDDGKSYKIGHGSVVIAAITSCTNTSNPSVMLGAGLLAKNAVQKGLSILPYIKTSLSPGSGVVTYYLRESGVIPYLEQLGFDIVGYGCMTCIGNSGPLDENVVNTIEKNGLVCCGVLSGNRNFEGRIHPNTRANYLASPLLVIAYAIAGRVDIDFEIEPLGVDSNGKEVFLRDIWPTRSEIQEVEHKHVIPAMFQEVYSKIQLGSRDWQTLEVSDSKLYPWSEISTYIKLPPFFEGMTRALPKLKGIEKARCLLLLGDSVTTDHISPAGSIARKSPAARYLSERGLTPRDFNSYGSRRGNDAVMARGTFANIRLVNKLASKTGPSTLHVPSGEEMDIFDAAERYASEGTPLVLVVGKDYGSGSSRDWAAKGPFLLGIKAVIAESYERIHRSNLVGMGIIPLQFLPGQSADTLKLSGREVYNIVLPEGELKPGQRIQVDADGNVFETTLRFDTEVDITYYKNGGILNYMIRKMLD

[2] = molecular target: T2, Drosophila IRP1B in larvae (endogenously Flag-tagged IRP1B^3F as bait; endogenous IRP1B as prey) (Drosophila (endogenous in larvae)) (UniProt Q9VGZ3)
T2 sequence: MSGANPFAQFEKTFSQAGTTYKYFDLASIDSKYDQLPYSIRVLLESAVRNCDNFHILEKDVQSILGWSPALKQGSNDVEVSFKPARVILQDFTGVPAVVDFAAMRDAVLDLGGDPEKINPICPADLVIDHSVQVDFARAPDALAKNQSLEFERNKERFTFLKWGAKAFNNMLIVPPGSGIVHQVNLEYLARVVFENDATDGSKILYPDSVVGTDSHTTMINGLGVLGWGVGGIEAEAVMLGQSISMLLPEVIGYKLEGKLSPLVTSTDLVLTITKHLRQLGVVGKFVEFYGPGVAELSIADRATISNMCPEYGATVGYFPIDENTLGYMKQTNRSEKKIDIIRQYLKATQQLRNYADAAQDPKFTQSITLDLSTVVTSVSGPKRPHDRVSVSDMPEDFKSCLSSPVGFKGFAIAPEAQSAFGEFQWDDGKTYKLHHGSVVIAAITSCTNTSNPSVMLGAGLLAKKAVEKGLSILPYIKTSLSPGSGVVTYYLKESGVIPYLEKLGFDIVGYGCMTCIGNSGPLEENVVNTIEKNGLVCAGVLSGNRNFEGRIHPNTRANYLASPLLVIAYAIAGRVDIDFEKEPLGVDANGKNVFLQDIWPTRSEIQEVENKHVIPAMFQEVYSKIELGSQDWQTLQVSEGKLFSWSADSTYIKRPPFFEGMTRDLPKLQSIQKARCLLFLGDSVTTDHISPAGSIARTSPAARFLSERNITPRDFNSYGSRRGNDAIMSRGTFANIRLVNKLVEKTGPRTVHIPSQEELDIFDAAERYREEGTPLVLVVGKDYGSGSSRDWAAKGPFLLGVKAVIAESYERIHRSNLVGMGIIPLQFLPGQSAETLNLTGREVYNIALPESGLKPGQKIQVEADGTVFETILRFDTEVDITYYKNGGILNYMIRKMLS

[3] = molecular target: T3, Drosophila AGBE in larvae (endogenously Flag-tagged AGBE^FCF as bait; endogenous AGBE as prey) (Drosophila (endogenous in larvae)) (UniProt A1Z992)
T3 sequence: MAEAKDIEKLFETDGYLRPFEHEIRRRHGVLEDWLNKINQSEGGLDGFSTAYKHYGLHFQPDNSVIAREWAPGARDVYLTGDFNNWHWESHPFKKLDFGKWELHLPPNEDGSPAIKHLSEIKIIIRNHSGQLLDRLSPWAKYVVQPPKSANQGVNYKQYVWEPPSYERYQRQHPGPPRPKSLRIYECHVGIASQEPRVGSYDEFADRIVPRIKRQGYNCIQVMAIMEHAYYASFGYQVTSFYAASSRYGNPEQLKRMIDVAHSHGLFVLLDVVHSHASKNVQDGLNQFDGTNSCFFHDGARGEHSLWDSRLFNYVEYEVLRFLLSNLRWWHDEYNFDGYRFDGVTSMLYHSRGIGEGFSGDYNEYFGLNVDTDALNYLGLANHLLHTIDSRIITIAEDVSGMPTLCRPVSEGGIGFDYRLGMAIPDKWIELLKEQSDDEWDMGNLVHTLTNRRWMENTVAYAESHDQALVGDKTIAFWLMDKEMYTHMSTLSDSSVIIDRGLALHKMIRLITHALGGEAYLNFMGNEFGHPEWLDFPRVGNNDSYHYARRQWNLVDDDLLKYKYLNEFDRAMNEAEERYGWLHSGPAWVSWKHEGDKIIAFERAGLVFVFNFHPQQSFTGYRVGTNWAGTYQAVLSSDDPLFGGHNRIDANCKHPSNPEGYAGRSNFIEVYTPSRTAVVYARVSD

binding [1]: binds
binding [2]: no binding
binding [3]: binds
B1: HA-tagged Drosophila Cisd2 (natural protein, UniProt Q9VAM6 1-133, looked up)
chain: MEPISHLVKSSLPNYLSSLPVPDSIGGWFKLSFKDWLALIPPTVVVAGLGYTAYLAYCPAARASCAAKNSGRCNNHIRKNEPKVVDMIDVEDIAEKAAFCRCWKTKNWPYCDGSHGEHNKQTGDNVGPIVIKK
notes: Drosophila Cisd2, cDNA RE49709; also called mitoNEET; Cisd2/mitoNEET; source: S2 cells, transfected, in lysate

Reference: article PMC6884552, “Glycogen branching enzyme controls cellular iron homeostasis via Iron Regulatory Protein 1 and mitoNEET” (Nature Communications, 2019)
